Here are results for 66 sequences from PubChem BioAssay AID1347423 (Functional Genomics Laboratory (NCATS/FGL), 2020).

In all, about 52,000 sequences went through this assay and about 210 (0.4%) were called active.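 The calls were made as follows: active = gene whose silencing raises cell survival under the drug, median off-target-corrected z-score across its silencing RNAs 2 or more; inactive = the rest.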 Some of the results follow.

A short description of this test: Resistance to Poly (ADP-Ribose) Polymerase inhibitor: Gene Identification via Genome-wide siRNA Screen. The conditions noted are these: mouse BRCA2 R2336H ES cells, olaparib, CellTiter-Glo viability; active compounds read high. In outline: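 Genome-wide siRNA screen (3 siRNAs/gene, 20 nM) in mouse ES cells carrying hypomorphic BRCA2 R2336H; olaparib 500 nM added 48 h post-transfection, CellTiter-Glo viability 72 h later. Normalized to plate-median negative control; MAD z-scores, gene median, seed-adjusted.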
(In general: Cellular ATP, detected with luciferase, serves as a proxy for viable cell number.)
Regarding GGAUAGUCAUCAACAGAGCTT against Psma7, the z-score is inactive: 3.54. As to GGACUUGGAGCUGAAAUUGTT against Uble1a, the z-score was inactive: -1.55.

“GGAUGAACCAAACCAAUAATT against 4933434I20Rik”: the z-score was inactive: -0.37. As for GGUGGAUUUGACUAUGCCCTT against Ptprv, the z-score was inactive: -0.0396.

Turning to GGGAAUUCAUUGAGAAAUATT against Anxa6, the z-score is inactive: 0.0236. For GGCGGAGAGGAAAUCUAUGTT against Mycs, the z-score was inactive: 0.0986.

Take GGACCAGACGAACAGUGAUTT against Surf2: the z-score is inactive: 0.102. Consider AGGCCUUCAAUAUCCCAUCTT against Zfp457, for which the z-score is inactive: 0.943. As to GGAGGAAAUUAUAAACAAGTT against Ifit1, the z-score is inactive: 1.03.

Take AUGUUUGAGAGCGACUUUATT against LOC432552: the z-score is inactive: 0.157. Take CCUACUGACGGGAUGAAGUTT against BC037135: the z-score is inactive: -0.813. Regarding GGAUGAGGGAACGUACAUUTT against Il18r1, the z-score is inactive: 0.361. On to GUCAAAACACUCACGUACCTT against Mustn1, for which the z-score was inactive: 0.667. With “GGAUGUGGACUCAAAGAAATT against 1110001E17Rik”, the z-score is active: 1.9.

Regarding GGACCAUCUCUUUCAUUGCTT against Olfr1125, the z-score is inactive: 0.456.

CCAUAUCUCAUCCUACAGCTT against Tnk1: the z-score is inactive: -0.292. On to GGUUGGUCAGAUGAAGGGUTT against Gpr113, for which the z-score was inactive: -0.781. On to CCUACUUACUCCUGUAUAATT against Adam3, for which the z-score was inactive: -1.13. Regarding GCCGAAGUAGCCAAAGCUATT against Cyln2, the z-score was inactive: -0.151. With “GGCUCUAAAUUUUUUGUUCTT against 1110021N07Rik”, the z-score is inactive: -0.184. With GGAUACAAUCAUCGCCAUCTT against Olfr101, the z-score is inactive: 1.1. As to GGCCAACAAGGAAAACAUCTT against Bcas2, the z-score was inactive: 0.85. For GGGAUGAUUCAAUGGAUAATT against Tbx22, the z-score was inactive: -0.46. Turning to GGUAUAAAUUUUCUCAGCUTT against Sntg1, the z-score is inactive: 1.12. GCAAAUUUUAUCAACCGCATT against Mical3: the z-score was inactive: -0.312. On to “GGAAAUCCUUACGAUGCUGTT against 2410022L05Rik”, for which the z-score is inactive: -0.903. On to GGUAGAGAUGUCUAAAGAUTT against Galnt9, for which the z-score is inactive: 0.029.

As for GGAGCAGGAUAUUGAGACCTT against Ndrg1, the z-score is inactive: 1.25.

For the sequence GGAGAAAGUGGACAGGGCUTT against Jph4, the z-score was inactive: -1.17. As for GGCUCUUGCUUUAGUAUUCTT against Ly9, the figure is inactive: -0.297. The figure for GCAGUUUUAUAACAGCCCUTT against Bcs1l is inactive: 0.87; for CCUUCUUGUCCUUCUUUUCTT against Olfr503 it is inactive: -0.0512. Take CGUGUUUGACAAGGCAUUGTT against Vps11: the z-score is inactive: 0.43. Turning to “GGCUUCAGCUAUUGGGCAATT against 4930405J24Rik”, the z-score was inactive: -0.0645. As for AGCUGCUCUGAGUUAGAAATT against Scd2, the figure is inactive: -1.09; as for “GGAUUAUCAAUGAAUAGCATT against C030002O17Rik”, inactive: 1.11; as for GGAGCAUGAGGAUUACUGUTT against Fln29, inactive: 0.111. GGACUGAGAAGAAAUGAGUTT against Il27ra: the z-score is inactive: 0.408. For the sequence CCUCAUCGUUAUUUGGAUCTT against Tacr3, the z-score is inactive: -0.306. For the sequence “GGUUUAAUGAGCAUCCCUUTT against C330039G02Rik”, the z-score was inactive: 1.09. The figure for GGUAUCUUGAGAAGCCAAUTT against Stat3 is inactive: 0.549; for GGAGAUGUAACCAUAGGCCTT against Dctn6 it is inactive: 0.334. The figure for GCCUGUAAGGAGAAUCAGCTT against Car4 is inactive: -0.793.

As to GGACAAUAUAUCCGGAUUUTT against Mylc2b, the z-score is inactive: 1.52.

In the case of CCAAGUACUGGAAAUUCAATT against Mmp15, the z-score was inactive: 1.52. With GCAGUCGCCGCUUUGUAAATT against Tlx3, the z-score is inactive: -1.31. As for “GCCUCAUCGUAUAUAAAAUTT against 2010107E04Rik”, the z-score was inactive: -0.224.

As for GUGCAUUGUCUUUUGUAGATT against Olfr1095, the z-score was inactive: -0.255. Take CCGUUUAACAGCAUAUCAUTT against Gm606: the z-score was inactive: 1.19. Turning to “GGAGACUGUCUAAUAAAAATT against 6330406I15Rik”, the z-score is inactive: -0.612. Turning to GGACCAGAUCCUUCUGCUATT against Ubd, the z-score is inactive: -2.2. On to “GGGACUGUACUCAUUUCUATT against 1700045I19Rik”, for which the z-score is inactive: -0.632.

Turning to GGUAACCUACAGUCAAAGUTT against Gckr, the z-score was inactive: -0.643. Turning to AUAGACUCUUCCAUCGGCATT against Ppp1r13l, the z-score is inactive: -2.37.

Regarding CCCUCUAUCAGUUACCCUGTT against Mcpt2, the z-score is inactive: -0.902. The figure for GGCAGAACUUACACGAGAUTT against Pphln1 is inactive: -0.825. Regarding “CCUAAUGGAAGGGAAGCCATT against 2810437L13Rik”, the z-score was inactive: -0.624. With GGCUAAGUCCAACUUUAGATT against Tmprss5, the z-score is inactive: -0.00948. For the sequence “CCCAGGACUCGGAUUAGAATT against 4933406J04Rik”, the z-score was inactive: 0.0905. Regarding GGGAUCUGUGUUGAAUGAATT against BC064033, the z-score was inactive: -0.647.

In the case of UUGUCCUGGUCUCCUAUGCTT against Olfr141, the z-score is inactive: -1.98. As to GGUCUACUGGCGUAAUUACTT against BC025105, the z-score is inactive: -0.682.

Take GCUGGUGGCAAUCAGAAAATT against Nppc: the z-score is inactive: 0.237. For GCAAGGAAGGUUUUCAAGUTT against Gsta2, the z-score was inactive: 0.714. Consider GGAAAUAAAUGGCAGCAUGTT against H2-T3, for which the z-score is inactive: 0.27. In the case of GCCAUUUUAUUGAAGCAAGTT against Sema3a, the z-score is inactive: -1.72.
